## Screening data, single-dose tests

Sequences of proteins named here, by UniProt entry; tags and fusion partners are left off. Residues count along the entry.
UniProt A4I591, 1-473: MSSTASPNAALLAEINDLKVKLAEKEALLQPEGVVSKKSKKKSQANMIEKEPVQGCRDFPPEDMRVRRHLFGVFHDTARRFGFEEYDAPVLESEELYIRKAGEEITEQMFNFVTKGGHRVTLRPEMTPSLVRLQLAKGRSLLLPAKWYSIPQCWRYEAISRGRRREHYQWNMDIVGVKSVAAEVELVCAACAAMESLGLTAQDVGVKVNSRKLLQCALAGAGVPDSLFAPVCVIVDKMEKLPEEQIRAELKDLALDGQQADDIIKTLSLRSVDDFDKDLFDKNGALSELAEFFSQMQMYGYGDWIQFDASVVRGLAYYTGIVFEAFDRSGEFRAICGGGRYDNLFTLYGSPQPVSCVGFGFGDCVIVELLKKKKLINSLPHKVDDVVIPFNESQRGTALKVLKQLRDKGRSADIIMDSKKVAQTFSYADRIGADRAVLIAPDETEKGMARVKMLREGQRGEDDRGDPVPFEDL
UniProt P9WPC5, whole entry: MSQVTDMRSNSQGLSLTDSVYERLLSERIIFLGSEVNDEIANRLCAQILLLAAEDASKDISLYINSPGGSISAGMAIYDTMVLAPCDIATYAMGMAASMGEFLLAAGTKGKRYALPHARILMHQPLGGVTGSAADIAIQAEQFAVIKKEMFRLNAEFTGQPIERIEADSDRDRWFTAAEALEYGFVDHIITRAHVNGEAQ
UniProt P9WPC3, whole entry partner: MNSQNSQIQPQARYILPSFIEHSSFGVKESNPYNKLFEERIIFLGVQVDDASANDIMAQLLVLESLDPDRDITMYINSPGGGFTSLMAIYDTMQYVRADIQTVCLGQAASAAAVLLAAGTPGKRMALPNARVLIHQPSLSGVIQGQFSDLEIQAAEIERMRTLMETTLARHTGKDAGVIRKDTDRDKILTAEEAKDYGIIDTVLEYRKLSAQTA
UniProt Q4DA54, 1-478: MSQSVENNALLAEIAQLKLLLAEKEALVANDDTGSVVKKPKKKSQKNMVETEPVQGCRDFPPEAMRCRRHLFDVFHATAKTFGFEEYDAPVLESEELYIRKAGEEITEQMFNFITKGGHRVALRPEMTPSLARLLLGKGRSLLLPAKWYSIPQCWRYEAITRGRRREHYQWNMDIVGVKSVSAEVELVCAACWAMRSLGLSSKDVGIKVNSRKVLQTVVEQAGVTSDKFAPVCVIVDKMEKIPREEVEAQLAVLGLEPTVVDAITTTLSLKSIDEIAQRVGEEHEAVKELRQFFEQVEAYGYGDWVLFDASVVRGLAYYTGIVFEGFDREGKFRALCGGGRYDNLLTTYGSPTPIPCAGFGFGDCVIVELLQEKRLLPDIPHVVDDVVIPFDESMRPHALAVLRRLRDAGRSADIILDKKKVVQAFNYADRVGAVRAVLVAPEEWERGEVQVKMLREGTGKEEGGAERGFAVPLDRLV

Values are the deposited “Percent Effect”, in %.
The record does not define 0% and 100%; most values in the screen are far below 50% and negative numbers occur (in some assays of this library far below -100).
This is an unselected part of the compounds tested.

A: 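Assay of Toxoplasma gondii numbers, read through their beta-galactosidase reporter with a colour substrate. Concentration: 10 µM. The record gives no direction; the compounds picked for IC50 retests had high values, so higher reads as fewer parasites. Of about 67,000 compounds tested this way, about 260 (0.38%) reached 50% or more in at least one test.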
B: 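Whole-parasite assay of Trypanosoma brucei over 72 hours; the read-out is not stated. Compounds at 30 µM. Higher reads as stronger inhibition (inferred: compounds with an IC50 in retests scored well above the rest). Values scatter widely below zero; nearly all retest evidence comes from the higher of the two concentrations used. Size under these conditions: about 64,000 compounds, about 940 of them at 50% or above in at least one test.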
C: 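Enzyme assay of histidyl-tRNA synthetase; the read-out is not stated. Target: Histidine-tRNA ligase, Leishmania infantum (UniProt A4I591). Concentration: 30 µM. Higher reads as stronger inhibition (inferred: compounds with an IC50 in retests scored well above the rest). The assay is labelled LdHisRS but filed under L. infantum. Of about 69,000 compounds tested this way, about 410 (0.6%) reached 50% or more in at least one test.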
D: 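ClpP1P2, Mycobacterium tuberculosis (UniProt P9WPC5 and UniProt P9WPC3). Protease assay of ClpP1P2, read by the AMC dye that it sets free. Compounds at 50 µM. Higher reads as stronger inhibition, judged from the few compounds that gave an IC50. Most other retested compounds had strongly negative values. About 69,000 compounds were tested under these conditions; 0.015% (about 10) showed 50% or more at least once.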
E: 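Enzyme assay of histidyl-tRNA synthetase; the read-out is not stated. Target: Histidine-tRNA ligase, Trypanosoma cruzi CL Brener (UniProt Q4DA54). Concentration: 30 µM. Higher reads as stronger inhibition (inferred: compounds with an IC50 in retests scored well above the rest). About 69,000 compounds were tested under these conditions; 0.045% (about 31) showed 50% or more at least once.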

compound: COc1cc(C)cc(C(C(=O)O)N2CCN(C3CCCC3)CC2)c1OC (centres unmarked)
A: -2.021%
B: -23.09%
C: 9.091%
D: -5.238%
E: 7.609%

compound: Clc1ccc(-c2c[nH]c([C@@H]3COCCN3)n2)cc1
A: 6.024%
B: -12.38%
C: 8.108%
D: 1.985%
E: 1.493%

compound: Cc1nnc(CN(C)CC2(O)CCCN(CCC3CCCCC3)C2=O)o1 (centres unmarked)
B: -21.02%
C: 9.677%
D: 1.563%
E: 8.046%

compound: CCn1cc(CNC(=O)C2CCCC2)cn1
A: 2.294%
B: 0.1427%
C: 25%
D: -2.59%
E: 1.242%

compound: Cc1cc(C)n(CC2CCCN2C(=O)c2cccn3ccnc23)n1 (centres unmarked)
A: 10.17%
C: 18.35%
D: -17.97%
E: 11.37%

compound: CN(Cc1cccnc1)CC1CCOc2ccccc2C1 (centres unmarked)
A: -9.26%
B: 5.259%
C: 15.87%
D: -7.286%
E: -1.538%

compound: O=C(O)C(F)(F)F.O=C(O)C(F)(F)F.[H][C@@]12CN(Cc3nccs3)C[C@@]1([H])N(Cc1ccncc1)C(=O)CO2
A: 0.4162%
B: 34.26%

compound: CC(C)N(C(=O)Cn1c(-c2ccco2)cc2cccnc21)C(C)C.Cl
A: -18.18%
B: 4.175%

compound: CS(=O)(=O)N1CCC(CNC(=O)C2CCC2)CC1
A: -18.87%
B: -42.68%
C: 21.95%
D: 1.38%
E: 8.173%

compound: COc1cc(N2CCO[C@H]3[C@@H](Oc4cccnc4)CC[C@@H]32)ncn1
C: -2.655%
D: 1.316%
E: 5.6%

compound: CS(=O)(=O)N1CC[C@]2(C[C@@H](Oc3ccccn3)CO2)C1
C: 8.772%
D: -8.608%
E: 3.279%

compound: O=C(O)C1CCCCN1C(=O)c1cccc(C(F)(F)F)c1 (centres unmarked)
A: -4.457%
B: 30.27%
C: 13.64%
D: 3.993%
E: -2.273%

compound: Cc1nc(N2CCCOC(Cn3cccn3)C2)c2sccc2n1 (centres unmarked)
A: -22.34%
B: -3.171%
C: 10.39%
D: -21.91%
E: -2.424%

compound: COc1cccc(CN2CCC3(CCN(c4ncc(C)cn4)CC3)C2)c1
C: 8.772%
D: -11.72%
E: 8.602%

compound: CCCOC1CCCN(c2ccnc(C(=O)NCc3ccco3)c2)C1 (centres unmarked)
A: 1.406%
B: -113.6%
C: 11.67%
D: 3.07%
E: 16.88%

compound: COC(=O)CCN1CCCC1c1cccc2c1OCCO2 (centres unmarked)
A: -2.863%
B: -18.42%
C: 10.68%
D: -9.793%
E: 7.054%

compound: CN[C@@H](CO)C(=O)NCc1cc2n(n1)CCCN(C1CCCCC1)C2
A: 11.98%
B: 2.692%
C: 22.47%
D: 1.493%
E: 9.548%

compound: COc1cccc(NC(=O)Cc2c(C)nc3c(c2C)c(=O)[nH]n3C)c1
A: 2.217%
B: 27.62%
C: 14.88%
D: -2.543%
E: 8.163%

compound: COC[C@]1(O)CCN(Cc2cnc(N(C)C)nc2)CC1(C)C
A: -7.55%
B: -20.98%
C: 8.434%
D: -15.35%
E: 6.098%

Repeated from the top, 2 entries:

| compound | A | B | C | D | E |
|---|---|---|---|---|---|
| `COc1cc(C)cc(C(C(=O)O)N2CCN(C3CCCC3)CC2)c1OC` (centres unmarked) | -2.021% | -23.09% | 9.091% | -5.238% | 7.609% |
| `Clc1ccc(-c2c[nH]c([C@@H]3COCCN3)n2)cc1` | 6.024% | -12.38% | 8.108% | 1.985% | 1.493% |

Source: ChEMBL document CHEMBL3988442, “University of Dundee, Small-Polar-MMV Screening Library” (2021).